From US8053435B2, “Naphthalenyloxypropenyl derivatives having inhibitory activity against histone deacetylase and pharmaceutical composition comprising the same” (Korea Research Institute of Chemical Technology, priority 2006, dated 2011)
At least one compound was matched to its structure with a doubt left.

System: HDAC
Assay: Inhibitory activity against HDAC (BIOMOL Quantizyme Assay system, Fluor de Lys substrate)
Assay type: biochemical
Conditions: Table 3, formula (2) series; HeLa nuclear extract as source of HDAC enzymes; enzyme reaction 1 hr; read-out: IC50 (HDAC inhibitory concentration)
Description: HDAC activity was analyzed using BIOMOL Quantizyme™ Assay system which comprised two steps of 1) enzyme reaction between HDAC and a substrate and 2) determination of the level of HDAC inhibitory activity.
(§1) 0.5 μl of HeLa nuclear organic layer (10 μM) (a source of HDAC enzymes) was then added thereto to a final concentration of 100 nM. The enzyme reaction was carried out for 1 hr.
Subsequently, in step 2), 2 μM tricostatin A was added to 50 μl of Flour de Lys™ developer, followed by allowing the mixture to react at room temperature for 15 minutes. The light excited at 355 nm and emitted at 460 nm from the fluorophore was measured with a fluorometric plate reader. The intensity of the fluorescence increases as the enzyme activity is higher. The HDAC inhibitory activity of each of the test compounds was determined and compared with that of the control.
0.5 μl of HeLa nuclear organic layer (10 μM) (a source of HDAC enzymes) was then added thereto to a final concentration of 100 nM, The enzyme reaction was carried out for 1 hr.
as §1, §1

`O=C(CCCC/C=C(\COc1cccc2ccccc12)C(=O)NCCCn1ccnc1)NO` [Example 2-1, (E)-N1-(3-(1H-imidazol-1-yl)propyl)-N8-hydroxy-2-((naphthalen-1-yloxy)methyl)octenediamide] was tested, and the IC50 was 0.023 µM.
